Data on four substances can be found in publication PMC11949059.

Protein sequences, listed by entry. Tags and fused reporters are not part of them. Lines headed by an entry give the natural chain unless they say otherwise; changes in a name come on top.
UniProt Q96PZ2: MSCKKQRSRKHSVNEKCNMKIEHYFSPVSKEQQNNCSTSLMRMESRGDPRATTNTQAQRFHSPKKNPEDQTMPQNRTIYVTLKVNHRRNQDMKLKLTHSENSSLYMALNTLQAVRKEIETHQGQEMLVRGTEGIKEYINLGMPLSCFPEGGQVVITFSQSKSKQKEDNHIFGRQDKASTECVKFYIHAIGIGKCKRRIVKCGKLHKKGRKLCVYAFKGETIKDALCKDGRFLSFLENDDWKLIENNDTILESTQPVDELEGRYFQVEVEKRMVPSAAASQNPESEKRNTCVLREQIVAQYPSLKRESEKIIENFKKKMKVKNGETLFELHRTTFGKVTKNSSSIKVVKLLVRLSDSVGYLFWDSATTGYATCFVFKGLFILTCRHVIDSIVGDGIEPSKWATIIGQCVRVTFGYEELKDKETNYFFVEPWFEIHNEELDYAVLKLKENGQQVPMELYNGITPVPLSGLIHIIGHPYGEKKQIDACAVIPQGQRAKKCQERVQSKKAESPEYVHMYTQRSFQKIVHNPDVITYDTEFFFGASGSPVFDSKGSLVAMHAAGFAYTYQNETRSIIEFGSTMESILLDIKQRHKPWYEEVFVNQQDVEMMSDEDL

Test [1] addresses FAM111A^WT fusion protein (human) (UniProt Q96PZ2). The experiment in a line: FRET or BRET; NanoBRET in HEK293T cells (Figure 1H); NanoLuc donor and HaloTag acceptor fusions; furimazine 10 uM, 37°C; BRET ratio in milliBRET units. Background: In BRET a luciferase serves as donor, and the signal depends on an acceptor being close.
Test [2] shares this target. Nature of the test: FRET or BRET; NanoBRET in HEK293T cells; NanoLuc donor and HaloTag acceptor fusions of FAM111A WT with amino-terminal tags, compared with the empty vector; data not shown.

These are yes or no findings as the source states them, for the method shown. In cells and extracts the contact can be indirect. Some entries that bind do so weakly or less than the wild type.

On to “mutant FAM111A fusion protein containing the R569H substitution (from UniProt Q96PZ2 1-611)”, for which the binding result in test [1] is reported as “binds”. Turning to “FAM111A^Y414C fusion protein (from UniProt Q96PZ2 1-611)”, the binding result in test [1] is “binds”. Same read-out and setting: under “mutant FAM111A fusion protein containing the S541Y substitution (from UniProt Q96PZ2 1-611)” stands “binds”. Take “FAM111A^WT fusion protein (from UniProt Q96PZ2 1-611)”: the binding result in test [2] and in test [1] was “binds” each time.
